Assay results reported in publication PMC12644692.
No constants are given. Whether binding was seen depends on the method and setting. In cells and extracts the contact can be indirect. Some binding calls cover weakened binding; strength is not graded here.

By UniProt entry, the sequences of proteins in these tests, tags left out.
UniProt P16110: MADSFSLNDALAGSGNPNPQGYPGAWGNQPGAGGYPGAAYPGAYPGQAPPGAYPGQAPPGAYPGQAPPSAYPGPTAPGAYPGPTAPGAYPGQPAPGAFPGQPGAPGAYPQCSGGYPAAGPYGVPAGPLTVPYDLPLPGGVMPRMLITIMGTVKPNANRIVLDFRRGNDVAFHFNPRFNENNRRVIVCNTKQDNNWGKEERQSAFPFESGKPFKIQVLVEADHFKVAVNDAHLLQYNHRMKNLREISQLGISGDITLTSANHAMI

Biological target: T1, CD146 of mouse whole kidney tissue lysate (mouse (endogenous in mouse kidney)) (UniProt Q8R2Y2)
T1 sequence: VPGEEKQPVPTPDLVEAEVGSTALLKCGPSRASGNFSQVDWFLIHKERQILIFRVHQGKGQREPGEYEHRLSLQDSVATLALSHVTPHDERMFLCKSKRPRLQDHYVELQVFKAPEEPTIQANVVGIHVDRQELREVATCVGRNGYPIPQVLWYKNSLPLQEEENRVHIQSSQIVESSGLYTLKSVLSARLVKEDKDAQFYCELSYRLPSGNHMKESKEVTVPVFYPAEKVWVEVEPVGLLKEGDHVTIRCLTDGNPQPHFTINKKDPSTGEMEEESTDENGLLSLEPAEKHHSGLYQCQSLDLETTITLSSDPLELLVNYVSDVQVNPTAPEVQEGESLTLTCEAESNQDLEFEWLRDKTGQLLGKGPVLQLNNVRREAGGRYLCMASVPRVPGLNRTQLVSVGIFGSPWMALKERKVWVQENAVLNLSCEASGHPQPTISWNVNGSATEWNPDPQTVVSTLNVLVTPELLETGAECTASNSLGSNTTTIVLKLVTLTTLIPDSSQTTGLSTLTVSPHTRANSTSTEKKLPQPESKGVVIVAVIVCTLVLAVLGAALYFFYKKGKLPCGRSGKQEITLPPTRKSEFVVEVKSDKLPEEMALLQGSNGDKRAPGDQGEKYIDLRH
Test: co-IP; combination of whole kidney tissue lysate and plasma from WT mice or CD146-/- mice; immunoprecipitation of Gal3 or of CD146, blots for Gal3 and CD146

- binding: binds
Substance: Galectin-3 of mouse plasma (from UniProt P16110 1-264)
